Assay results taken from patent publication US20110158994A1.
Results are given in words; binding and its absence hold for the method and conditions named. Some results given as binding are weak or reduced against the parent protein; the word gives no strength.

Amino acid sequences for entries named in this document (tags omitted). Residues count along the entry.
UniProt P35968, residues 20-764: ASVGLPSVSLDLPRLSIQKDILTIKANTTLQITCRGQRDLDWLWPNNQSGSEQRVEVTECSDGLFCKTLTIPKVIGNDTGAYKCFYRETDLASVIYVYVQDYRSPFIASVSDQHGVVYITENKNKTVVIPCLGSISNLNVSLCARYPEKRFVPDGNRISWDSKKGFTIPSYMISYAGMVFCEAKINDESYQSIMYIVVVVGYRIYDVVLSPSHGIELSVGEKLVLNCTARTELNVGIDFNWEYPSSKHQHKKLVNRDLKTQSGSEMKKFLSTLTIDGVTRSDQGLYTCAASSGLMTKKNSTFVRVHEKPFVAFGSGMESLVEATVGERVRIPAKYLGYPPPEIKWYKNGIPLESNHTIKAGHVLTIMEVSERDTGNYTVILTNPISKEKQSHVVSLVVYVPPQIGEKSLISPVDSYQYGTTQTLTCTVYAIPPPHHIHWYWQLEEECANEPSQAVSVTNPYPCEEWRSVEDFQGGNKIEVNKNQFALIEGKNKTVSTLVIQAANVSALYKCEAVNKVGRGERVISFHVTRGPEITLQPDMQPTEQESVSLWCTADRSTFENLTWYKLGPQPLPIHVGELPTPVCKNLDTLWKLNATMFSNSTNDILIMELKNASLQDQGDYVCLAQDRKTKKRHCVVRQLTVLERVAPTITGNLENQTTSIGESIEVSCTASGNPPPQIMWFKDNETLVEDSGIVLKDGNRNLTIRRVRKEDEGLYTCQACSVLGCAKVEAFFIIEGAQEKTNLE

What follows are binders tested against Human VEGFR-2 (R&D systems, Inc.; catalog #357-KD) (human) (UniProt P35968) (assay: phage ELISA: VEGFR-2 on plate, phage solution, anti-M13-HRP, OD450).

Binder | binding
HINAGQWF [Polypeptide number 10 displayed on phage] | binds
DGSGPPTN [Polypeptide number 8 displayed on phage] | binds
LLPSG [Polypeptide number 20 displayed on phage] | binds
HIKAGQWF [Polypeptide number 9 displayed on phage] | binds
HITDGQWF [Polypeptide number 11 displayed on phage] | binds
WSLGRPFP [Polypeptide number 12 displayed on phage] | binds
FEGTYGGEV [Polypeptide number 16 displayed on phage] | binds
WAIHKPWP [Polypeptide number 14 displayed on phage] | binds
HLNMRYQWI [Polypeptide number 17 displayed on phage] | binds
GYEWQY [Polypeptide number 5 displayed on phage] | binds
KHKNQATG [Polypeptide number 13 displayed on phage] | binds
YQDKSHGGF [Polypeptide number 15 displayed on phage] | binds
